Test results reported in patent US20120282646A1, “METHOD FOR ACTIVATING A NATURAL KILLER CELL BY ADJUSTING THE EXPRESSION OF THE SOCS2 GENE” (Korea Research Institute of Bioscience and Biotechnology, priority 2009, published 2012).
No constants are given. Whether binding was seen depends on the method and setting. Some entries that bind do so weakly or less than the wild type.

Sequences of proteins named here, by UniProt entry; tags and fusion partners are left off.
UniProt Q14289: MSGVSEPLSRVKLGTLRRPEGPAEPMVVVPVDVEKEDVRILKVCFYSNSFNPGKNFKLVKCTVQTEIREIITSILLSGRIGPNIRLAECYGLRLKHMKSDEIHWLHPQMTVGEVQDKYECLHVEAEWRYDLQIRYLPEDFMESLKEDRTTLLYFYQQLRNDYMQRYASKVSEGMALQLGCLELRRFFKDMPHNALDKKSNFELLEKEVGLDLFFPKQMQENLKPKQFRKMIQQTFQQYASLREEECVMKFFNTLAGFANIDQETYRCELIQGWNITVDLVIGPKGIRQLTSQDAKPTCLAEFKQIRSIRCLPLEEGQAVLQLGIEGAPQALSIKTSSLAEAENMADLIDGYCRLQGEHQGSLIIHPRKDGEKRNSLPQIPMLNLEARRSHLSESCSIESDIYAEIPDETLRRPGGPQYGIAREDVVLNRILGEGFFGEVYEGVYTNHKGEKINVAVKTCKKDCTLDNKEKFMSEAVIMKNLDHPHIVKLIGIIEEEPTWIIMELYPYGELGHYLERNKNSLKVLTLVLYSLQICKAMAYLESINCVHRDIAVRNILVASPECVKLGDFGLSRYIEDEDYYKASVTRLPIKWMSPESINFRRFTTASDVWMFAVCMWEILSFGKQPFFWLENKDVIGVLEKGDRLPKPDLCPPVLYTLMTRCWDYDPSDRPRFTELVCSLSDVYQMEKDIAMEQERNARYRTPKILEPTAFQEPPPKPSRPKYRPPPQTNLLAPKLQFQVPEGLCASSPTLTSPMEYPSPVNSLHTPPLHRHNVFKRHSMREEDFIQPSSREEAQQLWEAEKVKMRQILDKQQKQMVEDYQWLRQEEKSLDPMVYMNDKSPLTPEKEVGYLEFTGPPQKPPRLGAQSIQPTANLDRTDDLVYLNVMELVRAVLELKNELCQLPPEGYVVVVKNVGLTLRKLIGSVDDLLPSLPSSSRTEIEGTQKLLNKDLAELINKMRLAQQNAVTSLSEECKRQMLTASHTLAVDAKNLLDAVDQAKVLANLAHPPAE
UniProt O14508: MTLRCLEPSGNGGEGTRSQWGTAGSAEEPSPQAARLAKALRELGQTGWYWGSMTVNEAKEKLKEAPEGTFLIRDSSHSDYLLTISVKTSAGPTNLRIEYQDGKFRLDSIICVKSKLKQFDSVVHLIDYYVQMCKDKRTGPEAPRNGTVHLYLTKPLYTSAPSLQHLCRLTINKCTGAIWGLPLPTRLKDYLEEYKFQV

Key:
[1] = target: Pyk2 expressed endogenously in NK-92 cells (human) (UniProt Q14289); assay: endogenous immunoprecipitation with anti-SOCS2 from NK-92 lysate, Western blot with anti-Pyk2
[2] = target: Pyk2 protein (yeast two-hybrid screening) (UniProt Q14289); assay: yeast two-hybrid screening

binding [1]	binding [2]	Substance
binds	–	SOCS2 expressed endogenously in NK-92 cells (from UniProt O14508 1-198)
–	binds	SOCS2 protein (yeast two-hybrid screening) (from UniProt O14508 1-198)
